The supplement of paper PMC10849652
This is one part of the list.

By UniProt entry, the sequences of proteins in these tests, tags left out. Where a name states a change or a piece, a line headed by the entry shows the natural chain unless it says otherwise.
UniProt Q0VDF9: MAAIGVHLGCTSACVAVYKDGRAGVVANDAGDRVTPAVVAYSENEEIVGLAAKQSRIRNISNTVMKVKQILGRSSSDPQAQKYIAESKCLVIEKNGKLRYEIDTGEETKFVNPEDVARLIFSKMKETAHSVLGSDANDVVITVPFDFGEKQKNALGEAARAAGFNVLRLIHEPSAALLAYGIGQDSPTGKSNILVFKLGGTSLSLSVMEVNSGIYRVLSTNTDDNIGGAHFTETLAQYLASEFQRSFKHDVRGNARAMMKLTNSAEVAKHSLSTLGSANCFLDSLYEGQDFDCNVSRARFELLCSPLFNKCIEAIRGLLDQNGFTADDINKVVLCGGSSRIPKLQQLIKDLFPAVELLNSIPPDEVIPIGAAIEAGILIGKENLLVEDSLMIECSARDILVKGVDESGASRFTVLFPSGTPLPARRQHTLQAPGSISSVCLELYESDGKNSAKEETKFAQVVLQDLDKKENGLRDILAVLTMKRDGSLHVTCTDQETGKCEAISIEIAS
UniProt Q9NQE9: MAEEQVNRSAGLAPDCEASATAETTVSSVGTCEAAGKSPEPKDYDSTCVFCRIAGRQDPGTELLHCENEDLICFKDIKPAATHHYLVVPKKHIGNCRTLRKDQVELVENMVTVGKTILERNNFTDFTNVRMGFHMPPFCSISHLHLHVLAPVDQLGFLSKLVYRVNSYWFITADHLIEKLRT
UniProt P34931, whole entry, looked up: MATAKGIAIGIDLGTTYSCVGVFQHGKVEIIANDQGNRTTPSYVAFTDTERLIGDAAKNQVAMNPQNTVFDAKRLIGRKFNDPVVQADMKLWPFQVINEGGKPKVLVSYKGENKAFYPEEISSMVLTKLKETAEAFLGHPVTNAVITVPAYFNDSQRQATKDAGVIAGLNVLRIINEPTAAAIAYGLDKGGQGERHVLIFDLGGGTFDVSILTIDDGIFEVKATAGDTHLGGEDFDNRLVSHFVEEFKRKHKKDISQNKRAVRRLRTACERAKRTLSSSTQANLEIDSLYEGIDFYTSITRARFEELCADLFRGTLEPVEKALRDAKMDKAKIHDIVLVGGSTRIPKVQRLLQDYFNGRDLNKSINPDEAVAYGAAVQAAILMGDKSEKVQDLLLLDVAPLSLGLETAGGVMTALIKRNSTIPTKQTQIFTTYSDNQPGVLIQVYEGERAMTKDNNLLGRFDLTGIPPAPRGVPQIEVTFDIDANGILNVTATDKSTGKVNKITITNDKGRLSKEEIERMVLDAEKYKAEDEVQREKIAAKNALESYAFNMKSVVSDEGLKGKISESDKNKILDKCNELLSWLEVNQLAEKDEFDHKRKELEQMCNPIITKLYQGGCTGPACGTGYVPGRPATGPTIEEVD
UniProt Q6YN16: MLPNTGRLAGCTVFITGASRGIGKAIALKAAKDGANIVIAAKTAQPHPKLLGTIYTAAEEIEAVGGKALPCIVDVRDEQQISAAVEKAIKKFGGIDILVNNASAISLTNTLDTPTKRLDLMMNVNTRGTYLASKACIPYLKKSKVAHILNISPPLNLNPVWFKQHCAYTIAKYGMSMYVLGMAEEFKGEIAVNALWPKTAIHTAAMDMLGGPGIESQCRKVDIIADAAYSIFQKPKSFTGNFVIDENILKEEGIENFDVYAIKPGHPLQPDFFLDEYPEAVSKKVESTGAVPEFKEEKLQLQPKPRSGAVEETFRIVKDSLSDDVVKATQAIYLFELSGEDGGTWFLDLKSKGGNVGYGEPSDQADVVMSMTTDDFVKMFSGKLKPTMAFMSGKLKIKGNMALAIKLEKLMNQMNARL
UniProt P50747: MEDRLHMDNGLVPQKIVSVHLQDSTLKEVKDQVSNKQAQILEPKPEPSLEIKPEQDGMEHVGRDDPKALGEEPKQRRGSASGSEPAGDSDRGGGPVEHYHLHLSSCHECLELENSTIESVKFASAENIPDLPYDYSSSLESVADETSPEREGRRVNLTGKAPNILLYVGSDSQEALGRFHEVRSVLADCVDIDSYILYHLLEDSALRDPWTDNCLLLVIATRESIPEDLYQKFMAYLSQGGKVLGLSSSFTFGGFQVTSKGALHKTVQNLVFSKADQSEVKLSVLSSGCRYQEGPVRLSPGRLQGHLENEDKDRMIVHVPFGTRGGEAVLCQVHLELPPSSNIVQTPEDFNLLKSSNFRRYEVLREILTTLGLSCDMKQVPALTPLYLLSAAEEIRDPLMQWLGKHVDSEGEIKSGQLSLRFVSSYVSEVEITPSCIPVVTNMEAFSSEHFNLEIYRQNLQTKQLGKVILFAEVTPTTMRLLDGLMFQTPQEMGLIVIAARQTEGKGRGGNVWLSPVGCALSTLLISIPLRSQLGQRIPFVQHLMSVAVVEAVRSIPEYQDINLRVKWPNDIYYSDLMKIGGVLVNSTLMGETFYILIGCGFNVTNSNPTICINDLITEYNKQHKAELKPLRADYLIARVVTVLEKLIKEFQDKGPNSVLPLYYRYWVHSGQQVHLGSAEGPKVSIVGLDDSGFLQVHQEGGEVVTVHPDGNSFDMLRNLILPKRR
UniProt Q92506: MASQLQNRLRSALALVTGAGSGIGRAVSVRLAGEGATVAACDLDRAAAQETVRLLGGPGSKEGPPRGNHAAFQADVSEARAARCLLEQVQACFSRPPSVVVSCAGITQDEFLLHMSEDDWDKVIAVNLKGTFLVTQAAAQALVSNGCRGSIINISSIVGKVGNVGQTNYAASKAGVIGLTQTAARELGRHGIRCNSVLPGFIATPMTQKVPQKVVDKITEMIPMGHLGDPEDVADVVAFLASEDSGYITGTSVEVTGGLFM
UniProt P61604, whole entry, looked up: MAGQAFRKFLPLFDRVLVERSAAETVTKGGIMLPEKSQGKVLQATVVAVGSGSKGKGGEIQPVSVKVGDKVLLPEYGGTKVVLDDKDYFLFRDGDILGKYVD
UniProt Q8TCT9: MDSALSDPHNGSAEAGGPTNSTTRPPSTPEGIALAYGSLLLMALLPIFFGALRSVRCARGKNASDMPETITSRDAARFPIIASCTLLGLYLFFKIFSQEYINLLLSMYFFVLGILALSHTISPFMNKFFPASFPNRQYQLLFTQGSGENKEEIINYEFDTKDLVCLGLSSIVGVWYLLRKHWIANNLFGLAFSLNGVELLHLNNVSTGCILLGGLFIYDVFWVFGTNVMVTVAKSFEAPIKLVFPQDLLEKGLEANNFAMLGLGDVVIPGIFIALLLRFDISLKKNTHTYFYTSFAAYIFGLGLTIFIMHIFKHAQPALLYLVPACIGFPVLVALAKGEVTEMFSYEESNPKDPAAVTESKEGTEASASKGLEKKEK
UniProt P08397: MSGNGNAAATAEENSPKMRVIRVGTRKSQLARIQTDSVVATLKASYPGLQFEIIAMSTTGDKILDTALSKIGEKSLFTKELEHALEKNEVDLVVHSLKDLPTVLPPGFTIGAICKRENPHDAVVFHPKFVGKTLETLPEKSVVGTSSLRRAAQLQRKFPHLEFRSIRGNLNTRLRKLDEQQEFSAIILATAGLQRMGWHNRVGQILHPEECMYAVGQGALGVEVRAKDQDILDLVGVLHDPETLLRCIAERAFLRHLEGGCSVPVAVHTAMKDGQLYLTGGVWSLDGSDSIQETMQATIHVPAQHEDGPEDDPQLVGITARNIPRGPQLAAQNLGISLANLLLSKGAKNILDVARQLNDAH
UniProt P10809, whole entry, looked up: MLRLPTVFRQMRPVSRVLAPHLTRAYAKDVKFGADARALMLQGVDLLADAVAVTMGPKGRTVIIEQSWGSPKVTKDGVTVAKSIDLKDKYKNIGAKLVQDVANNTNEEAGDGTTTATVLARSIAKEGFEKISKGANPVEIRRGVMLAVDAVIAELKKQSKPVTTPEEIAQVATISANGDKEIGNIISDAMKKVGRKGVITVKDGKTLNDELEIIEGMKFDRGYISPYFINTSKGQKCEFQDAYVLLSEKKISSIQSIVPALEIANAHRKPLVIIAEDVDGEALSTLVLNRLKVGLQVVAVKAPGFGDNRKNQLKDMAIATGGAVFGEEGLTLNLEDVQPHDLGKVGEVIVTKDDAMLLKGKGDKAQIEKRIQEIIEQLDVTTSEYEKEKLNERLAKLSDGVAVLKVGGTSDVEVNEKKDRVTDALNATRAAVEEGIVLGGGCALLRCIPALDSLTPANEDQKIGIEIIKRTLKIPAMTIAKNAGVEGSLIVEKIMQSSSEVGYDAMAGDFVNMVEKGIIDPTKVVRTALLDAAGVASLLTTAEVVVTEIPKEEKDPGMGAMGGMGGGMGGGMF
UniProt P54868: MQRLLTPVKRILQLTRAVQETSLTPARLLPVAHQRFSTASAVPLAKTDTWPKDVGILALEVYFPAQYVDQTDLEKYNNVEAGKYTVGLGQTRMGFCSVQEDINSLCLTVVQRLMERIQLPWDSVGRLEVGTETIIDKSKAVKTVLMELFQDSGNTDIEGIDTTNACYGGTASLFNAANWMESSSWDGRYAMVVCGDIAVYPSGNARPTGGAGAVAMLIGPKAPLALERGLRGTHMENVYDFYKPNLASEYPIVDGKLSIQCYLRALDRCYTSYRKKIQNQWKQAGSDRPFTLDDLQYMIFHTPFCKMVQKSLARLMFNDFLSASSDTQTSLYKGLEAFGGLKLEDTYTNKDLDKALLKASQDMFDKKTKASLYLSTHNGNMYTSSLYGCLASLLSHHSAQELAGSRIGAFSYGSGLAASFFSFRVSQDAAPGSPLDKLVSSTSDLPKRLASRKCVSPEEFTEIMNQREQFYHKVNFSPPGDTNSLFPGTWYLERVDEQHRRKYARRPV
UniProt P48723: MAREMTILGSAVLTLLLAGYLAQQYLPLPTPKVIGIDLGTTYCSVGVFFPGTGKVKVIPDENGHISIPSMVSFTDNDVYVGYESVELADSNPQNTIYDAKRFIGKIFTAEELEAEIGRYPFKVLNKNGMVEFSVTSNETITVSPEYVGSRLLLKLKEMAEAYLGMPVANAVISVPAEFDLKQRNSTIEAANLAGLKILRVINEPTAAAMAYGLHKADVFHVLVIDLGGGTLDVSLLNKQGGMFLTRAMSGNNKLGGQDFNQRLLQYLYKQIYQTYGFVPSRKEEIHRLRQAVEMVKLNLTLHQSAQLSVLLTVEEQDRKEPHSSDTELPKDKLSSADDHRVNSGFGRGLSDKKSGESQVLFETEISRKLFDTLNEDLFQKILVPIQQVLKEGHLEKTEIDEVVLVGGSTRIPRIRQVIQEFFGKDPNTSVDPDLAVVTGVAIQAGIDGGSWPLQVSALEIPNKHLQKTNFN
UniProt P00738: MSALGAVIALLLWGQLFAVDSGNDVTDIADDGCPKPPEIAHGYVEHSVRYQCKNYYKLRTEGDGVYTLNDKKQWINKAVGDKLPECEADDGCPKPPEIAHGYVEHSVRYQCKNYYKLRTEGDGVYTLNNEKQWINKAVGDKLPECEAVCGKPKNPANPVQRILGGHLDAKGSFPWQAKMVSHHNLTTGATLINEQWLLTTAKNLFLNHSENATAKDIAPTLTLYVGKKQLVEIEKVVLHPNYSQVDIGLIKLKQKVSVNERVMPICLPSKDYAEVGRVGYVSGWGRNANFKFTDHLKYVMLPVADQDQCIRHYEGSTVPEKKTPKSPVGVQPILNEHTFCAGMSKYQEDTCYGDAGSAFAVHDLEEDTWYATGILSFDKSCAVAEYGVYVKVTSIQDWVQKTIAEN
UniProt Q9NZL4: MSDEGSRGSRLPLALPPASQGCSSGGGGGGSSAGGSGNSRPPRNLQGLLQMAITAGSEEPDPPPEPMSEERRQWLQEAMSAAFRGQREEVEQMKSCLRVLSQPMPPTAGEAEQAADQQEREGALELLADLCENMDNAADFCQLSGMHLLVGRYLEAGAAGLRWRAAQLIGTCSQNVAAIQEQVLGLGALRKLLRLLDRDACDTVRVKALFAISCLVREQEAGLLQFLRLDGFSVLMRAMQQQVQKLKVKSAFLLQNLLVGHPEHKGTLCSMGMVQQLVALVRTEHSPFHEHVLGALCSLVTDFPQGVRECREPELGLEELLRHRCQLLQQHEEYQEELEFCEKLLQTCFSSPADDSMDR
UniProt Q13151: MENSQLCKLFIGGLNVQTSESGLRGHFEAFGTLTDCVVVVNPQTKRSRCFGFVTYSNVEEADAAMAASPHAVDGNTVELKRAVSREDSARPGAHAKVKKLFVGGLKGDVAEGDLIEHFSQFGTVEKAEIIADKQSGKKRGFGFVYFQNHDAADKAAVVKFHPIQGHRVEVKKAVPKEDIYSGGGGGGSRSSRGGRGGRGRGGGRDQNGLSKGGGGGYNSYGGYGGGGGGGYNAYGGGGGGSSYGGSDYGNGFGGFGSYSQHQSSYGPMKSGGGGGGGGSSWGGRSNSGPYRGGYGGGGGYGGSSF
UniProt Q9BTY7: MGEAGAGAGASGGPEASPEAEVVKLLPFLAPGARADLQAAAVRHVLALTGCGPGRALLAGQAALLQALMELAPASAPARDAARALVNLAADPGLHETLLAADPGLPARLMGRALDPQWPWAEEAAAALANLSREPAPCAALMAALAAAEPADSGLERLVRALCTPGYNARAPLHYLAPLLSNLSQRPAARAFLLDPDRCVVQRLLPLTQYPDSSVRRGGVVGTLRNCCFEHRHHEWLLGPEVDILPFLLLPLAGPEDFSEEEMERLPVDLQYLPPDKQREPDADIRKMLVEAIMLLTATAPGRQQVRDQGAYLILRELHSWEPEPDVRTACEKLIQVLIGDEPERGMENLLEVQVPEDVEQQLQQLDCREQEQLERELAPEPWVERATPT

How the values were obtained:
Experiment in all cases: log2 fold change, soluble protein after heating vs DMSO (PISA); higher = thermal stabilisation; K562 cells, 10 uM, 30 min; active = over 0.2 and 3.5 SD of the protein, either way, in both replicates (recomputed)
[1] = compound: CS(=O)(=O)c1ccc(-c2cnc(N)c(C(=O)Nc3ccccc3)n2)cc1
How it was run: (§1)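 For each measurement, 10 μM compound was applied for 30 min to K562 cells at 2×10^6 cells/mL. Aliquots were heated for 3 min across 48°C-58°C, pooled, and extracted in PBS with 0.5% NP-40 at 4°C; the supernatant after 21,000xg for 90 min was soluble protein. This was quantified by TMTpro 16plex LC-MS/MS with channel sums equalised, and thermal stability was reported relative to control samples from duplicates, on a log2 fold-change scale.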

[2] = compound: C[C@@H](Oc1cc(-c2cnn(C3CCNCC3)c2)cnc1N)c1c(Cl)ccc(F)c1Cl [crizotinib]
How it was run: as §1

[3] = compound: C[C@@H]1COCCN1C2=NC(=NC(=C2)C3(CC3)S(=O)(=O)C)C4=C5C=CNC5=CC=C4
How it was run: as §1

[4] = compound: C[C@H](C1=CC=C(C=C1)C(=O)NC2=C3C=CNC3=NC=C2)N
How it was run: as §1

[5] = compound: C[C@H](Nc1ncnc2nc[nH]c12)c1cc2cccc(Cl)c2c(=O)n1-c1ccccc1 [duvelisib]
How it was run: as §1

[6] = compound: Cc1cc(Nc2cc(CN3CCOCC3)c3nc(C)c(Cc4ccc(Cl)cc4F)n3n2)n[nH]1 [gandotinib]
How it was run: as §1

[7] = compound: Cc1cc(Nc2cc(N3CCN(C)CC3)nc(Sc3ccc(NC(=O)C4CC4)cc3)n2)n[nH]1 [tozasertib]
How it was run: as §1

[8] = compound: Cc1cc(SCc2sc(-c3ccc(C(F)(F)F)cc3)nc2C)ccc1OCC(=O)O
How it was run: as §1

[9] = compound: Cc1ccc(-n2nc(C(C)(C)C)cc2NC(=O)Nc2ccc(OCCN3CCOCC3)c3ccccc23)cc1 [doramapimod]
How it was run: as §1

[10] = compound: Cc1ccc(C(=O)N(CCCN)[C@@H](c2nc3cc(Cl)ccc3c(=O)n2Cc2ccccc2)C(C)C)cc1 [ispinesib]
How it was run: as §1

Measured: log2 fold change

HSPA6 (UniProt P17066)
inactive: [1] 0.019 | [2] 0.021 | [3] -0.064 | [4] 0.003 | [5] -0.022 | [6] 0.001 | [7] -0.002 | [8] -0.047 | [9] -0.108 | [10] 0.011

HSPA14 (UniProt Q0VDF9)
inactive: [1] 0 | [2] -0.084 | [3] -0.034 | [4] 0.143 | [5] -0.013 | [6] -0.042 | [7] -0.001 | [8] 0.083 | [9] 0.091 | [10] -0.136

HINT3 (UniProt Q9NQE9)
inactive: [1] -0.009 | [2] -0.026 | [3] -0.048 | [4] -0.162 | [5] 0.043 | [6] 0.099 | [7] -0.064 | [8] -0.017 | [9] -0.001 | [10] 0.004

HSPA1L (UniProt P34931)
inactive: [1] 0.131 | [2] 0.053 | [3] -0.001 | [4] 0.188 | [5] 0.054 | [6] -0.281 | [7] -0.124 | [8] -0.155 | [9] 0.005 | [10] 0.019

HSDL2 (UniProt Q6YN16)
inactive: [1] 0.002 | [2] -0.049 | [3] 0.094 | [4] -0.079 | [5] 0.013 | [6] 0.038 | [7] -0.049 | [8] 0.064 | [9] -0.074 | [10] 0.043

HLCS (UniProt P50747)
inactive: [1] 0.032 | [2] 0.037 | [3] 0.033 | [4] -0.05 | [5] -0.002 | [6] -0.028 | [7] 0.041 | [8] 0.022 | [9] -0.008 | [10] 0.033

ICAM4 (UniProt Q14773)
inactive: [1] -0.009 | [2] 0.024 | [3] -0.053 | [4] 0.033 | [5] 0.085 | [6] -0.049 | [7] 0.036 | [8] 0.032 | [9] 0.074 | [10] -0.042

HGS (UniProt O14964)
inactive: [1] -0.012 | [2] 0.005 | [3] 0.038 | [4] -0.019 | [5] 0.005 | [6] -0.038 | [7] 0.049 | [8] -0.008 | [9] -0.033 | [10] -0.027

HSD17B11 (UniProt Q8NBQ5)
inactive: [1] 0.007 | [2] 0.061 | [3] 0.002 | [4] -0.115 | [5] 0.047 | [6] 0.056 | [7] -0.02 | [8] -0.004 | [9] 0.004 | [10] 0.128

HNRNPL (UniProt P14866)
inactive: [1] -0.147 | [2] -0.002 | [3] -0.018 | [4] 0.334 | [5] 0.036 | [6] 0.156 | [7] 0.098 | [8] -0.03 | [9] 0.019 | [10] -0.171

HSD17B8 (UniProt Q92506)
inactive: [1] -0.082 | [2] 0.07 | [3] -0.025 | [4] -0.055 | [5] 0.039 | [6] -0.007 | [7] 0.015 | [8] -0.046 | [9] -0.022 | [10] 0.044

HSPE1 (UniProt P61604)
inactive: [1] 0.03 | [2] 0.111 | [3] 0.04 | [4] -0.075 | [5] 0.053 | [6] 0.018 | [7] -0.027 | [8] -0.031 | [9] 0.001 | [10] 0.025

HM13 isoform 2 (UniProt Q8TCT9)
inactive: [1] -0.014 | [2] 0.038 | [3] 0.003 | [4] -0.041 | [5] -0.004 | [6] -0.031 | [7] -0.004 | [8] -0.037 | [9] 0.002 | [10] -0.021

HMBS (UniProt P08397)
inactive: [1] -0.01 | [2] 0.039 | [3] -0.029 | [4] -0.068 | [5] -0.01 | [6] 0.028 | [7] -0.024 | [8] -0.018 | [9] -0.026 | [10] 0.06

HMGCL (UniProt P35914)
inactive: [1] 0.038 | [2] 0.033 | [3] 0.013 | [4] -0.066 | [5] -0.005 | [6] -0.084 | [7] -0.032 | [8] 0.033 | [9] 0.005 | [10] 0.022

HSP90AA1 isoform 2 (UniProt P07900)
inactive: [1] 0.041 | [2] -0.028 | [3] 0.05 | [4] -0.064 | [5] 0.012 | [6] -0.089 | [7] 0.011 | [8] 0.023 | [9] -0.012 | [10] -0.006

HNRNPD isoform 4 (UniProt Q14103)
inactive: [1] -0.046 | [2] -0.105 | [3] -0.39 | [4] 0.218 | [5] -0.112 | [6] 0.246 | [7] 0.01 | [8] -0.178 | [9] 0.052 | [10] 0.184

HMGCLL1 (UniProt Q8TB92)
inactive: [1] 0.016 | [2] -0.113 | [3] 0.111 | [4] -0.001 | [5] 0.16 | [6] -0.065 | [7] 0.039 | [8] 0.008 | [9] 0.05

Reprinted from the results shown (2 entries):
HINT3 (UniProt Q9NQE9)
inactive: [1] -0.009 | [2] -0.026 | [3] -0.048 | [4] -0.162 | [5] 0.043 | [6] 0.099 | [7] -0.064 | [8] -0.017 | [9] -0.001 | [10] 0.004

HSPA1L (UniProt P34931)
inactive: [1] 0.131 | [2] 0.053 | [3] -0.001 | [4] 0.188 | [5] 0.054 | [6] -0.281 | [7] -0.124 | [8] -0.155 | [9] 0.005 | [10] 0.019

(next part)

HMGB2 (UniProt P26583)
inactive: [1] -0.045 | [2] -0.009 | [3] -0.087 | [4] -0.046 | [5] 0.023 | [6] 0.033 | [7] -0.03 | [8] 0.012 | [9] -0.001 | [10] 0.074

HSPD1 (UniProt P10809)
inactive: [1] 0.004 | [2] 0.038 | [3] 0.032 | [4] -0.008 | [5] -0.013 | [6] -0.025 | [7] -0.023 | [8] -0.043 | [9] -0.006 | [10] 0.007

HNRNPDL (UniProt O14979)
inactive: [1] -0.123 | [2] 0.041 | [3] -0.318 | [4] 0.25 | [5] -0.088 | [6] 0.159 | [7] -0.046 | [8] -0.001 | [9] 0.025 | [10] -0.107

HMGCS2 (UniProt P54868)
inactive: [1] 0.012

HLA-E (UniProt P13747)
inactive: [1] -0.027 | [2] -0.039 | [3] 0.022 | [4] 0.012 | [5] 0.011 | [6] 0.115 | [7] 0.115 | [8] -0.003 | [9] 0.13

HSPA13 (UniProt P48723)
inactive: [1] -0.003 | [2] -0.012 | [3] -0.043 | [4] -0.032 | [5] 0.006 | [6] -0.048 | [7] 0.033 | [8] 0.006 | [9] 0.042 | [10] -0.006

HNRNPR isoform 2 (UniProt O43390)
inactive: [1] -0.108 | [2] 0.014 | [3] -0.24 | [4] 0.172 | [5] -0.094 | [6] 0.102 | [7] 0.043 | [8] 0.07 | [9] 0.034 | [10] -0.197

HP (UniProt P00738)
inactive: [1] 0.075

HSPB1 (UniProt P04792)
inactive: [1] 0.027 | [2] 0.048 | [3] -0.03 | [4] 0.026 | [5] -0.027 | [6] -0.005 | [7] 0.059 | [8] 0.02 | [9] 0.164 | [10] -0.031

HSPBP1 isoform 3 (UniProt Q9NZL4)
inactive: [1] 0.023 | [2] -0.003 | [3] 0.031 | [4] -0.018 | [5] 0.034 | [6] -0.143 | [7] 0.087 | [8] 0.033 | [9] -0.052 | [10] 0.06

HSPA1A (UniProt P0DMV8)
inactive: [1] 0.002 | [2] 0.039 | [3] -0.105 | [4] 0.044 | [5] -0.037 | [6] -0.076 | [7] -0.017 | [8] -0.055 | [9] -0.003 | [10] 0.046

HUWE1, A0A087X1S3
inactive: [1] 0.028 | [2] -0.282 | [3] -0.092 | [4] -0.053 | [5] -0.078 | [6] 0 | [7] -0.03 | [8] 0.107 | [9] 0.02

HNRNPA0 (UniProt Q13151)
inactive: [1] -0.113 | [2] -0.095 | [3] 0.057 | [4] 0.343 | [5] -0.009 | [6] 0.175 | [7] 0.027 | [8] 0.016 | [9] 0.077

HGH1 (UniProt Q9BTY7)
inactive: [1] 0.012 | [2] 0.107 | [3] 0 | [4] 0.128 | [5] 0.062 | [6] -0.007 | [7] 0.017 | [8] 0.137 | [9] 0.009 | [10] -0.197
